# ± gives the standard deviation of the averaged measurements. This is a selection; strong and weak results do not stand in their true shares.
# Legend:
# Assay in all cases: NP40-soluble protein abundance relative to vehicle (solubility fold change) (ratio); higher = more soluble protein in presence of ATP
# CAMLG = molecular target: T1, CAMLG (UniProt P49069)
# T1 sequence (whole entry): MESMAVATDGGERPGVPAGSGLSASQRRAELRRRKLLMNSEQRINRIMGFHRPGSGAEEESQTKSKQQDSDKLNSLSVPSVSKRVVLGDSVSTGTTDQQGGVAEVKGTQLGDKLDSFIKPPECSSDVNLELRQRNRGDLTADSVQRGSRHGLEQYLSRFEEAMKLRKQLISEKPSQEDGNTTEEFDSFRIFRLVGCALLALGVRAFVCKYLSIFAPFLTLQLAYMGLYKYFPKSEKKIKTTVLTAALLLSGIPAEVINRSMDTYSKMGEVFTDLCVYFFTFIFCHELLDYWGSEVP
# Method in brief: (§1)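 Across three independent experiments, values are fold changes against the detergent-processed vehicle for each replicate, based on vsn-normalised intensities. The samples were Jurkat crude lysate treated with eight concentrations (0.1 to 10 mM) for 10 min at room temperature and then 3 min at 37 °C. Lysate was solubilised with 0.8% NP40 and benzonase, ultracentrifuged, and the supernatant analysed by TMT-labelled LC-MS/MS.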
# GLRX = molecular target: T2, GLRX (UniProt P35754)
# T2 sequence (whole entry): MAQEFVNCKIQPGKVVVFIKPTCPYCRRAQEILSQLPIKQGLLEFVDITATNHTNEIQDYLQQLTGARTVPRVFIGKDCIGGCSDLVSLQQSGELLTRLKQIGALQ
# Method in brief: as §1
# HNRNPF = molecular target: T3, HNRNPF (UniProt P52597)
# T3 sequence (whole entry): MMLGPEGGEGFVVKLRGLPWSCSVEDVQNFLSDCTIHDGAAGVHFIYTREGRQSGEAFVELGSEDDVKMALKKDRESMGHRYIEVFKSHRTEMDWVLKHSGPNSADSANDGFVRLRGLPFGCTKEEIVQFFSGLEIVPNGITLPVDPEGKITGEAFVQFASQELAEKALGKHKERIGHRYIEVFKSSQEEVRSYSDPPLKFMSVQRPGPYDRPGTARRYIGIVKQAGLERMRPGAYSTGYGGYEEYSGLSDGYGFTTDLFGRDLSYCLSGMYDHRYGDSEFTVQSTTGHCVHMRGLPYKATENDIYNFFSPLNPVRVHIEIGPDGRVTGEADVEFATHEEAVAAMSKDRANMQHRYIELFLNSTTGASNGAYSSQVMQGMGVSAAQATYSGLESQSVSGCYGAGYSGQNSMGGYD
# Method in brief: as §1
# MDH2 = molecular target: T4, MDH2 (UniProt P40926)
# T4 sequence (whole entry): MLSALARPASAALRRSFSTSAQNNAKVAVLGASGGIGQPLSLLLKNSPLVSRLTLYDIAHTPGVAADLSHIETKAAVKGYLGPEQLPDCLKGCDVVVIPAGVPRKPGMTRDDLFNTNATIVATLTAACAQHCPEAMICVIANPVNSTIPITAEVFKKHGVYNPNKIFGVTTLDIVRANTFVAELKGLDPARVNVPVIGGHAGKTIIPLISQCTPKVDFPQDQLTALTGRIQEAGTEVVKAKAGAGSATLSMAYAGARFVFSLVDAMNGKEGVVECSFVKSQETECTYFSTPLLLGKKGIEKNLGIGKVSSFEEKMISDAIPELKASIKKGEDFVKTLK
# Method in brief: as §1
# PIP4K2A = molecular target: T5, PIP4K2A (UniProt P48426)
# T5 sequence (whole entry): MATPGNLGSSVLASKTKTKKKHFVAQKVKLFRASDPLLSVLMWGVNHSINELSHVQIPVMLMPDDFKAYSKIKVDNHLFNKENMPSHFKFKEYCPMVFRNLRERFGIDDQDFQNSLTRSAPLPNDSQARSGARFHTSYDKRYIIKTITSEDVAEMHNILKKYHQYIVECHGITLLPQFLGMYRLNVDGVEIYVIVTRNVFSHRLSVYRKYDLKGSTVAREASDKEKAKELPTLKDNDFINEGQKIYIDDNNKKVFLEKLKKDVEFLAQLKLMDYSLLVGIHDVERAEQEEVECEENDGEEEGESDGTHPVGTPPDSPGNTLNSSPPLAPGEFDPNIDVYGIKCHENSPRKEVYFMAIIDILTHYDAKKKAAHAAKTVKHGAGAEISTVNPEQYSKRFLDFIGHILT
# Method in brief: as §1
# PPM1A = molecular target: T6, PPM1A (UniProt P35813)
# T6 sequence (whole entry): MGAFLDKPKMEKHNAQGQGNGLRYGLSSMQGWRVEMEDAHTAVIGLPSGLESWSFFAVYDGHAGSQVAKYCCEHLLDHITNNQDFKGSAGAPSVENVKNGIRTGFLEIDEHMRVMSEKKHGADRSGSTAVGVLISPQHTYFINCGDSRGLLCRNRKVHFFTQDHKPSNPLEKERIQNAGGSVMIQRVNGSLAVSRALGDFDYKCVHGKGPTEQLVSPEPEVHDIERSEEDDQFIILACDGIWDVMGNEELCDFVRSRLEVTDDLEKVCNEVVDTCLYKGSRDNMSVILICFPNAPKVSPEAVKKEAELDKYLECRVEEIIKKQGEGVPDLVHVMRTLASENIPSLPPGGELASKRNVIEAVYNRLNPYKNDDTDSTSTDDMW
# Method in brief: as §1
# PPM1F = molecular target: T7, PPM1F (UniProt P49593)
# T7 sequence (whole entry): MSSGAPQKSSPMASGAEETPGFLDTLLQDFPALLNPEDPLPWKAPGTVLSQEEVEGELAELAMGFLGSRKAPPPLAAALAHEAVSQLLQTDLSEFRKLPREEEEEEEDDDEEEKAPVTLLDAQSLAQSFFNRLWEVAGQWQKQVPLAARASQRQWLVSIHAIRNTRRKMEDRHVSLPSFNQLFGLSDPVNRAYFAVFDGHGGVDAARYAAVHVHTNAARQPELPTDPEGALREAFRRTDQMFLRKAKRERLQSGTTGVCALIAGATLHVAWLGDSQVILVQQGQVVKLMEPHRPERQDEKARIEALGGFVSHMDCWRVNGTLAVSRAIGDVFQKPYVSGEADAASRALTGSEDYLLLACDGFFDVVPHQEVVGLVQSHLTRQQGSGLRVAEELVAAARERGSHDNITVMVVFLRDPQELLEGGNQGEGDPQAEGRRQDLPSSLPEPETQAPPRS
# Method in brief: as §1
# RAB9A = molecular target: T8, RAB9A (UniProt P51151)
# T8 sequence (whole entry): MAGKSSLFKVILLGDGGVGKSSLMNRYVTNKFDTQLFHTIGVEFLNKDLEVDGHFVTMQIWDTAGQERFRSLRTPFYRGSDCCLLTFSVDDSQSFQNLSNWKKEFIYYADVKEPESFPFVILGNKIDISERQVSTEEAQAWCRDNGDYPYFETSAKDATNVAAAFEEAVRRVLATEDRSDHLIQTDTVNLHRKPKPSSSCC
# Method in brief: as §1
smiles,measurement,setting,value
Nc1ncnc2c1ncn2[C@@H]1O[C@H](COP(=O)(O)OP(=O)(O)OP(=O)(O)O)[C@@H](O)[C@H]1O [adenosine triphosphate],NP40-soluble protein abundance,CAMLG; concentration: 1mM,0.901 ± 0.1
same,NP40-soluble protein abundance,CAMLG; concentration: 2mM,0.933 ± 0.037
same,NP40-soluble protein abundance,CAMLG; concentration: 4mM,0.903 ± 0.08
same,NP40-soluble protein abundance,CAMLG; concentration: 6mM,0.965 ± 0.052
same,NP40-soluble protein abundance,CAMLG; concentration: 8mM,0.882 ± 0.039
same,NP40-soluble protein abundance,CAMLG; concentration: 10mM,0.891 ± 0.062
same,NP40-soluble protein abundance,GLRX; concentration: 1mM,0.944 ± 0.092
same,NP40-soluble protein abundance,GLRX; concentration: 2mM,0.94 ± 0.075
same,NP40-soluble protein abundance,GLRX; concentration: 4mM,0.967 ± 0.077
same,NP40-soluble protein abundance,GLRX; concentration: 6mM,0.914 ± 0.059
same,NP40-soluble protein abundance,GLRX; concentration: 8mM,0.949 ± 0.047
same,NP40-soluble protein abundance,GLRX; concentration: 10mM,0.889 ± 0.092
same,NP40-soluble protein abundance,HNRNPF; concentration: 1mM,0.996 ± 0.043
same,NP40-soluble protein abundance,HNRNPF; concentration: 2mM,1 ± 0.04
same,NP40-soluble protein abundance,HNRNPF; concentration: 4mM,0.98 ± 0.053
same,NP40-soluble protein abundance,HNRNPF; concentration: 6mM,0.986 ± 0.075
same,NP40-soluble protein abundance,HNRNPF; concentration: 8mM,0.999 ± 0.049
same,NP40-soluble protein abundance,HNRNPF; concentration: 10mM,0.983 ± 0.04
same,NP40-soluble protein abundance,MDH2; concentration: 1mM,0.966 ± 0.022
same,NP40-soluble protein abundance,MDH2; concentration: 2mM,0.936 ± 0.017
same,NP40-soluble protein abundance,MDH2; concentration: 4mM,0.893 ± 0.0097
same,NP40-soluble protein abundance,MDH2; concentration: 6mM,0.961 ± 0.028
same,NP40-soluble protein abundance,MDH2; concentration: 8mM,0.901 ± 0.028
same,NP40-soluble protein abundance,MDH2; concentration: 10mM,0.897 ± 0.033
same,NP40-soluble protein abundance,PIP4K2A; concentration: 1mM,0.979 ± 0.011
same,NP40-soluble protein abundance,PIP4K2A; concentration: 2mM,1.04 ± 0.024
same,NP40-soluble protein abundance,PIP4K2A; concentration: 4mM,1.06 ± 0.056
same,NP40-soluble protein abundance,PIP4K2A; concentration: 6mM,1.14 ± 0.041
same,NP40-soluble protein abundance,PIP4K2A; concentration: 8mM,1.1 ± 0.042
same,NP40-soluble protein abundance,PIP4K2A; concentration: 10mM,1.08 ± 0.03
same,NP40-soluble protein abundance,PPM1A; concentration: 1mM,0.98 ± 0.023
same,NP40-soluble protein abundance,PPM1A; concentration: 2mM,0.973 ± 0.028
same,NP40-soluble protein abundance,PPM1A; concentration: 4mM,0.955 ± 0.025
same,NP40-soluble protein abundance,PPM1A; concentration: 6mM,1.01 ± 0.026
same,NP40-soluble protein abundance,PPM1A; concentration: 8mM,0.951 ± 0.03
same,NP40-soluble protein abundance,PPM1A; concentration: 10mM,0.944 ± 0.039
same,NP40-soluble protein abundance,PPM1F; concentration: 1mM,0.969 ± 0.018
same,NP40-soluble protein abundance,PPM1F; concentration: 2mM,0.9861 ± 0.0097
same,NP40-soluble protein abundance,PPM1F; concentration: 4mM,0.968 ± 0.015
same,NP40-soluble protein abundance,PPM1F; concentration: 6mM,0.978 ± 0.024
same,NP40-soluble protein abundance,PPM1F; concentration: 8mM,0.939 ± 0.043
same,NP40-soluble protein abundance,PPM1F; concentration: 10mM,0.947 ± 0.015
same,NP40-soluble protein abundance,RAB9A; concentration: 1mM,0.958 ± 0.061
same,NP40-soluble protein abundance,RAB9A; concentration: 2mM,0.985 ± 0.086
same,NP40-soluble protein abundance,RAB9A; concentration: 4mM,1 ± 0.012

# As a short view, part of the list above.
smiles,measurement,setting,value
Nc1ncnc2c1ncn2[C@@H]1O[C@H](COP(=O)(O)OP(=O)(O)OP(=O)(O)O)[C@@H](O)[C@H]1O [adenosine triphosphate],NP40-soluble protein abundance,CAMLG; concentration: 8mM,0.882 ± 0.039
same,NP40-soluble protein abundance,CAMLG; concentration: 10mM,0.891 ± 0.062

# Source: the supplement of paper PMC6411743
